Among the data in the supplement of paper PMC12578635 are intracellular bacterial bioluminescence values, retold here.

Molecules are shown by their SMILES. The list shows a part of the results. No stated cut-off is given here; in the data, active = 150% or more and inactive = the rest. Most values come without repeats; read them as rough.

In this test the test system is Staphylococcus aureus JE2-lux inside RAW 264.7 macrophages. Briefly: intracellular bacterial bioluminescence relative to DMSO vehicle; higher = higher intracellular bacterial metabolic activity. The note with it: 10 µM; treatment time 4 h; gentamicin 50 µg/ml.
With `COc1ccc([N+](=O)[O-])cc1NC(=O)CSc1ccc(C)cc1`, the intracellular bacterial bioluminescence is inactive: 65.9%.
To `COc1ccc2[nH]c3nc(SCC(=O)Nc4ccccc4Cl)nnc3c2c1` belongs inactive: 120%.
To `CSc1ccc(NC(=O)NCCNc2nc3cc(C)c(C)cc3cc2C#N)cc1` belongs inactive: 127%; to `CCn1ncc(C2=NOC(C(=O)NCc3cccnc3)C2)c1C` (stereo unspecified), inactive: 107%.
To `Cc1ncc(C(=O)NC(c2ccccc2)c2ccnn2C)c(C)n1` (stereo unspecified) belongs inactive: 121%.
Regarding `O=C(CSc1c[nH]c2ccccc12)NCc1ccccc1`, the intracellular bacterial bioluminescence was inactive: 59.8%.
The result for `Cc1ccc(NC(=O)CSc2c[nH]c3ccccc23)c(C)c1` reads inactive: 101%.
To `COc1cc(Cl)c(C)cc1NC(=O)CSc1nc2c(-c3ccccc3)csc2c(=O)n1C` belongs inactive: 109%; to `Cc1nc2ccccc2cc1C(=O)NCc1ccccn1`, inactive: 77.9%; to `O=C(NCc1cccnc1)C(=O)c1cn(CC(=O)N2CCCCC2)c2ccccc12`, inactive: 130%.
As for `CCS(=O)(=O)c1ccc(C(=O)Nc2nc3ccc(Br)cc3s2)cc1`, the intracellular bacterial bioluminescence was inactive: 106%.
The result for `CNc1nc2c(c(=O)n(C)c(=O)n2C)n1CCSc1nc2ccccc2s1` reads inactive: 93.3%.
In the case of `COc1c(Sc2ccc([N+](=O)[O-])cc2)c(C)nn1-c1ccccc1`, the intracellular bacterial bioluminescence is inactive: 82.9%.
The result for `COc1ccc(-c2ocnc2C(=O)NCCc2cccc(F)c2)cc1OC` reads inactive: 55%; that for `O=C(Cn1c(CN2CCCCC2)nc2ccccc21)N1CCOCC1`, inactive: 120%.
To `CC(=O)Nc1ccc(Nc2c3c(c(C#N)c4nc5ccccc5n24)CCCC3)cc1` belongs inactive: 73.8%; to `CCOC(=O)c1c(SCC(=O)Nc2cc(C(F)(F)F)cc(C(F)(F)F)c2)nc(=O)[nH]c1C`, inactive: 98.7%; to `CCS(=O)(=O)c1cccc(C(=O)Nc2nc3c(F)cc(F)cc3s2)c1`, inactive: 102%.
Turning to `O=C(COc1cccc2c1CCN(Cc1ccccc1)C2=O)N1CCCC1`, the intracellular bacterial bioluminescence was inactive: 79.4%.
The result for `Cc1csc(N2C(=N)SC(c3ccccc3)C2=O)n1` (stereo unspecified) reads inactive: 103%.
Consider `c1ccc(-c2csc3ncnc(Sc4ccc5c(c4)OCCO5)c23)cc1`, for which the intracellular bacterial bioluminescence is inactive: 126%.
Regarding `O=C(CCC(=O)NC1CCCCC1)Nc1noc2ccccc12`, the intracellular bacterial bioluminescence was inactive: 93.5%.
For the compound `O=C(Oc1c(CN2CCOCC2)cc(Cl)c2cccnc12)c1ccco1`, the intracellular bacterial bioluminescence was inactive: 83.8%.
To `CC(C)Cn1c(=O)c2sccc2n2c(CCCC(=O)NCc3ccc4c(c3)OCO4)nnc12` belongs inactive: 75.5%.
To `CC(C)[C@H](Cn1nc(-c2ccc(F)c(F)c2)ccc1=O)NC(=O)c1ccc(=O)[nH]n1` belongs inactive: 108%; to `O=[N+]([O-])c1ccc2[nH]c(SCc3cn4cccnc4n3)nc2c1`, inactive: 33.2%.
The result for `CCOC(=O)c1oc2ccccc2c1NC(=O)c1cc2ccccc2oc1=O` reads inactive: 92%; that for `COC(=O)c1ccc(NC(=O)C(C)N2C(=O)c3ccccc3S2(=O)=O)cc1` (stereo unspecified), inactive: 73.5%.
As for `Cc1cc(C)nc(SCc2cc(=O)c(OC(=O)COc3ccccc3C)co2)n1`, the intracellular bacterial bioluminescence is inactive: 98.6%.
To `Cc1cccn2c(=O)c3cc(C(=O)NCc4cccnc4)c(=N)n(Cc4cccnc4)c3nc12` belongs inactive: 107%.
Turning to `CCCCN(C)S(=O)(=O)c1ccc(C(=O)Nc2nc3c(s2)CSc2ccccc2-3)cc1`, the intracellular bacterial bioluminescence is inactive: 99%.
With `COC(=O)c1ccc(CSc2nc(=O)n3ccc(C)cc3n2)o1`, the intracellular bacterial bioluminescence is inactive: 79.1%.
As for `N#CC1=C(SCC(=O)Nc2ccccc2)NC(=O)CC1c1cccc([N+](=O)[O-])c1` (stereo unspecified), the intracellular bacterial bioluminescence was inactive: 90.6%.
With `O=C(O)C1=CC(c2c[nH]nc2-c2ccc(F)cc2)n2ncnc2N1` (stereo unspecified), the intracellular bacterial bioluminescence was inactive: 103%.
Consider `CCOc1cc(NC(=O)c2cccc(Cl)c2)c(OCC)cc1NC(=O)c1ccc(Cl)cc1`, for which the intracellular bacterial bioluminescence was inactive: 109%.
Consider `CC(=O)c1ccc(-c2ccc(/C=C(\C#N)S(=O)(=O)c3ccccc3)o2)cc1`, for which the intracellular bacterial bioluminescence is inactive: 90.5%.
Take `Cc1cccc(S(=O)(=O)N(C)Cc2nc3cc(C(=O)N4CCCC4)ccc3n2C)c1`: the intracellular bacterial bioluminescence is inactive: 118%.
The result for `O=C(CC1Sc2ccccc2NC1=O)Nc1ccc(Cl)cc1[N+](=O)[O-]` (stereo unspecified) reads inactive: 101%.
With `CCC(=O)Oc1cccc(N2C(=O)c3ccc(C(=O)O)cc3C2=O)c1`, the intracellular bacterial bioluminescence was inactive: 104%.
As to `c1ccc(CNc2nc(-c3ccccc3)no2)cc1`, the intracellular bacterial bioluminescence is inactive: 18.4%.
To `CC(C)c1ccc(NC(=O)CSc2nncc(=O)[nH]2)cc1` belongs inactive: 123%; to `O=C(CSc1nc2sc3c(c2c(=O)[nH]1)CCCC3)Nc1nccs1`, inactive: 110%.
Regarding `CCC(Cn1nc2c(C)cc3ccccc3n2c1=O)NC(=O)c1ccco1` (stereo unspecified), the intracellular bacterial bioluminescence was inactive: 99.2%.
Consider `Cc1nnc(NC(=O)CSc2c(CC(C)C)cnc3c2c(=O)n(C)c(=O)n3C)s1`, for which the intracellular bacterial bioluminescence was inactive: 107%.
As for `O=C(NCc1nnnn1-c1ccc(F)cc1)C1CC(=O)N(c2ccc(F)cc2)C1` (stereo unspecified), the intracellular bacterial bioluminescence is inactive: 83.6%.
Consider `O=C(CCC(=O)N1CC(c2ccccc2)Oc2cccnc21)NCc1ccc(Cl)cc1` (stereo unspecified), for which the intracellular bacterial bioluminescence is inactive: 58.5%.
The result for `O=C(NCC1COC2(CCCCC2)O1)c1ccccc1F` (stereo unspecified) reads inactive: 109%; that for `COc1cc(/C=C/C(=O)C2=C(O)c3ccccc3C2=O)ccc1O`, inactive: 93.8%; that for `COc1cccc(C(=O)Oc2coc(CSc3ncccn3)cc2=O)c1`, inactive: 109%.
To `COC(=O)C1=C(C)Nc2nc(SCc3ccc([N+](=O)[O-])cc3)[nH]c(=O)c2C1c1cccnc1` (stereo unspecified) belongs inactive: 100%; to `CCNc1ncnc2c1c(-c1ccccc1)cn2-c1ccccc1`, inactive: 54.1%; to `Cc1nc2ccccc2c(=O)n1-c1cccc(NS(=O)(=O)c2ccc(F)c(C(F)(F)F)c2)c1`, inactive: 125%.
To `COc1ccc(NC(=O)c2ccc(SCCN3CCCCC3)nc2)cc1OC` belongs inactive: 87%; to `Cc1ccc(NC(=O)C(=O)NCc2ccc3c(c2)OCO3)cc1F`, inactive: 102%; to `CCCSc1nnc(NC(=O)c2cc(-c3ccc4c(c3)CC(C)O4)on2)s1` (stereo unspecified), inactive: 99%.
`COc1ccc(C2=C(C)C(N3CCC(C(=O)N4CCc5ccccc5C4)CC3)=NS2(=O)=O)cc1`: the intracellular bacterial bioluminescence is inactive: 109%.
Take `Cc1ccc(-c2cc3nc(C)cc(N4CCC(C(=O)Nc5ccc(F)c(F)c5)CC4)n3n2)cc1`: the intracellular bacterial bioluminescence was inactive: 98%.
As to `O=C(CCn1c(-c2ccncc2)cc2cccnc21)Nc1ccccc1F`, the intracellular bacterial bioluminescence is inactive: 71.2%.
The result for `COc1cc(OC)cc(-c2noc(Cn3c(=O)[nH]c4cc5c(cc4c3=O)OCO5)n2)c1` reads inactive: 76.7%; that for `O=c1nc(SCc2ccc([N+](=O)[O-])cc2)c2c(n1Cc1cccnc1)CCC2`, inactive: 5.11%; that for `CSc1nnc(C)c(=O)n1COC(=O)c1ccc2ccccc2c1`, inactive: 65.5%.
To `CCCc1cc(CNC(=O)C(C)N2C(=O)NC(C)(C)C2=O)on1` (stereo unspecified) belongs inactive: 115%; to `Cc1cc(C(=O)CSc2nnc3ccccn23)c(C)n1Cc1ccccc1`, inactive: 42.6%; to `O=C(CSc1nnc2c(n1)[nH]c1ccc(Cl)cc12)NCc1ccc2c(c1)OCO2`, inactive: 93.2%.
As for `Cc1noc(C)c1CSc1ncnc2sc3c(c12)CCCC3`, the intracellular bacterial bioluminescence is inactive: 107%.
`Cc1cnc(C(=O)N2CCC(c3nc4c(c(N5CCCC5)n3)CCC4)CC2)cn1`: the intracellular bacterial bioluminescence is inactive: 121%.
To `CC(=O)Nc1ccc(Nc2c3c(nc4ncnn24)CCC3)cc1` belongs inactive: 120%.
To `Cc1cc(C)c2c(n1)sc1c(=O)n(-c3ccc(C(=O)Nc4ccc(C)c(F)c4)cc3)cnc12` belongs inactive: 97.5%; to `Cc1c(-c2ccccc2)n[nH]c1C(=O)NC(c1ccccc1)c1cccnc1` (stereo unspecified), inactive: 16.2%.
Take `Cc1ccc(-c2noc(-c3cccn4c(=O)c5ccccc5nc34)n2)cc1`: the intracellular bacterial bioluminescence is inactive: 66.5%.
For `Cc1c(NC(=S)NCCc2ccccc2)c(=O)n(-c2ccccc2)n1C`, the intracellular bacterial bioluminescence was inactive: 103%.
Take `CNC(=S)NCCc1cc2c(OC)ccc(OC)c2[nH]c1=O`: the intracellular bacterial bioluminescence was inactive: 115%.
In the case of `C=CCn1c(SCC(=O)Nc2nccs2)nc2sc(C)c(C)c2c1=O`, the intracellular bacterial bioluminescence was inactive: 116%.
For `Clc1ccc2nc(Nc3nc4cc5c(cc4s3)OCO5)sc2c1`, the intracellular bacterial bioluminescence is inactive: 98.5%.
Consider `CCCCCn1c(=S)[nH]c2cc(C(=O)NCc3ccc4c(c3)OCO4)ccc2c1=O`, for which the intracellular bacterial bioluminescence is inactive: 113%.
For the compound `O=c1c2sc3ccccc3c2[nH]c(=S)n1CCc1c[nH]c2ccccc12`, the intracellular bacterial bioluminescence is inactive: 94.7%.
To `CSc1ncc(C(=O)Nc2ccc(C)c(C)c2)c(=O)n1C` belongs inactive: 119%.
The result for `CCOC(=O)CNC(=O)CS(=O)(=O)c1cn(CC(=O)N2CCCCCC2)c2ccccc12` reads inactive: 97.9%; that for `Cc1ccc(OCCCC(=O)Nc2sc3c(c2C(N)=O)CCC(C)C3)c(C)c1` (stereo unspecified), inactive: 85.7%; that for `CCc1ccc(S(=O)(=O)c2nnn3c2nc(N2CCC(C(N)=O)CC2)c2cc(Cl)ccc23)cc1`, inactive: 100%.
To `CC(=O)c1cccc(Nc2nc(Nc3ccc(F)c(Cl)c3)nc(N3CCOCC3)n2)c1` belongs inactive: 15.9%; to `CC(=O)c1ccc(NC(=O)c2sc3nc(C)cc(C)c3c2N)cc1`, inactive: 131%; to `Cc1cc(Cl)cc2sc(N(Cc3cccnc3)C(=O)CN3C(=O)CCC3=O)nc12`, inactive: 48.6%.
With `CCCC(=O)Nc1ccc(NC(=O)c2ccncc2)cn1`, the intracellular bacterial bioluminescence was inactive: 93.5%.
Consider `COc1ccc(NC(=O)c2cnc(SCC(=O)NCc3ccc4c(c3)OCO4)n(C)c2=O)cc1`, for which the intracellular bacterial bioluminescence was inactive: 27.2%.
The result for `C=CCc1cccc2cc(C(=O)Nc3cc(C)ccc3C)c(=O)oc12` reads inactive: 94.5%.
With `O=c1[nH]c2cc3ccccc3c(=O)n2c2sc3c(c12)CCCC3`, the intracellular bacterial bioluminescence was inactive: 131%.
Consider `CC(=O)NCCNc1nc2c(c(=O)n(C)c(=O)n2C)n1CC(=O)Nc1ccccc1C`, for which the intracellular bacterial bioluminescence was inactive: 110%.
To `COCCNC(=O)C1c2ccccc2C(=O)N1Cc1ccc(F)cc1` (stereo unspecified) belongs inactive: 107%; to `CC(Cc1cccs1)NC(=O)c1cnn(-c2ccc(F)cc2)c1` (stereo unspecified), inactive: 60.6%; to `O=C(Nc1nc2c(s1)COc1ccccc1-2)C1COc2ccccc2O1` (stereo unspecified), inactive: 93.6%.
